# Results deposited as PubChem BioAssay AID1508597 (Cure First, 2020).
# Screen: 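Survival screen with siRNA in ovarian cancer cells derived from patients, with or without rucaparib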 (primary screen)
# System: human ovarian carcinoma lines grown from tumours: OCI-P5x (papillary serous) and OCI-C5x (clear cell)
# Reagents: siRNA pool against human genes, 1.25 pmol siRNA per well
# Timing: 72 h or 96 h, depending on the cell culture
# Treatment: rucaparib 20 µM (about IC30) or vehicle, present until read-out
# Rucaparib or vehicle: Rucaparib
# Cell line: OCI-P5x (serous)
# Measurement: 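Luminescent ATP-based viability assay read 72 or 96 h after transfection, depending on culture, given as normalised percent viability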
# Reading the numbers: viability, normalised: higher = more viable cells remaining
# Rule for the call: 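Active when normalised viability falls below 80 percent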
# Meaning of the calls: active = viability under 80%; inactive = viability 80% or more
# Shown is a random part of the about 2,100 reagents, under one of the conditions tested. 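Calls flag viability under 80% in either arm, not effects specific to rucaparib; the reference for percent is not stated.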 Not stated in the record: the 100% reference.
gene,technical replicate,"viability, normalised (%)",Call
TSTD1,1,62.8,active
TSTD1,2,56.7,active
TSTD1,3,67.3,active
THOC1,1,67.5,active
THOC1,2,71,active
THOC1,3,63.4,active
MIP,1,90.8,inactive
MIP,2,114,inactive
MIP,3,97.8,inactive
STK3,1,52.3,active
STK3,2,65.6,active
STK3,3,53.2,active
EPHB6,1,101,inactive
EPHB6,2,81.7,inactive
EPHB6,3,96.5,inactive
MAPK15,1,73.9,active
MAPK15,2,76,active
MAPK15,3,80.8,inactive
ZCCHC13,1,69.4,active
ZCCHC13,2,54,active
ZCCHC13,3,70.2,active
CLDN10,1,58.5,active
CLDN10,2,58.8,active
CLDN10,3,32.8,active
EYA2,1,49.9,active
EYA2,2,60.8,active
EYA2,3,33.2,active
HIPK1,1,118,inactive
HIPK1,2,112,inactive
HIPK1,3,100,inactive
CRY2,1,91.8,inactive
CRY2,2,102,inactive
CRY2,3,86.9,inactive
TTBK1,1,75.8,active
TTBK1,2,77,active
TTBK1,3,66.3,active
BCL10,1,69.1,active
BCL10,2,75.4,active
BCL10,3,73.9,active

Copied from the entries so far for reference:
gene,technical replicate,"viability, normalised (%)",Call
MAPK15,2,76,active
MAPK15,3,80.8,inactive
ZCCHC13,1,69.4,active
ZCCHC13,2,54,active
ZCCHC13,3,70.2,active
CLDN10,1,58.5,active
CLDN10,2,58.8,active
